Measured data: PubChem BioAssay AID652243 (Drosophila RNAi Screening Center, 2013)
In all, the deposit lists about 24,000 reagents; shown is an unselected part of those with a known target gene and a result. Over the whole deposit, 246 (1%) were called active. 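Plates not normalised; calls are printed but the firefly/Renilla ratio behind them is not deposited; fold cut for lowering reported inconsistently.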 The raw values are shown without normalisation. Entries without a mark were called inactive. Not given: the amount of reagent.

- Aim: 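Fly regulators of androgen-dependent reporter output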 (primary screen)
- Cells: Drosophila S2R+ cells
- Reagent: long dsRNA against Drosophila genes
- Timing: 72 h (48 h, then 24 h hormone)
- Conditions: synthetic androgen R1881 at 10 nM for 24 h
- Measurement: 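Per-well raw luminescence of the androgen-driven firefly reporter and of the Renilla control, two replicates each, without normalisation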
- Scale: firefly reporter light: higher = more light from androgen-responsive reporter; Renilla control light: higher = more constitutive control signal (cell number, transfection)
- Active means: 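Hit when the log firefly-to-Renilla ratio dropped or increased by a fixed fold versus the mean of GFP or LacZ controls across duplicate plates; lowering cut given as 1.5 and as 3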
- Calls: active = hit: reporter lowered or raised; inactive = no hit

CG44836 [DRSC09915] | firefly reporter light, replicate 1: 2.60e5; firefly reporter light, replicate 2: 1.91e5; Renilla control light, replicate 1: 2.05e6; Renilla control light, replicate 2: 1.92e6
CG44836 [DRSC26572] | firefly reporter light, replicate 1: 2.60e5; firefly reporter light, replicate 2: 2.13e5; Renilla control light, replicate 1: 6.24e5; Renilla control light, replicate 2: 6.29e5
mad2 [DRSC10274] | firefly reporter light, replicate 1: 1.38e5; firefly reporter light, replicate 2: 99785; Renilla control light, replicate 1: 1.20e6; Renilla control light, replicate 2: 1.08e6
Alg2 (ALG2, alpha-1,3/1,6-mannosyltransferase) [DRSC08298] | firefly reporter light, replicate 1: 1.35e6; firefly reporter light, replicate 2: 1.33e6; Renilla control light, replicate 1: 1.86e6; Renilla control light, replicate 2: 1.38e6
hiw (highwire) [DRSC20338] | firefly reporter light, replicate 1: 1.01e5 (active); firefly reporter light, replicate 2: 1.22e5; Renilla control light, replicate 1: 1.36e6; Renilla control light, replicate 2: 1.60e6
hiw (highwire) [DRSC20339] | firefly reporter light, replicate 1: 1.15e5 (active); firefly reporter light, replicate 2: 1.03e5; Renilla control light, replicate 1: 3.39e6; Renilla control light, replicate 2: 3.01e6
hiw (highwire) [DRSC23634] | firefly reporter light, replicate 1: 5.08e5; firefly reporter light, replicate 2: 4.19e5; Renilla control light, replicate 1: 6.16e5; Renilla control light, replicate 2: 4.84e5

Next part, starting with the last 2 of the part before.
hiw (highwire) [DRSC20339] | firefly reporter light, replicate 1: 1.15e5 (active); firefly reporter light, replicate 2: 1.03e5; Renilla control light, replicate 1: 3.39e6; Renilla control light, replicate 2: 3.01e6
hiw (highwire) [DRSC23634] | firefly reporter light, replicate 1: 5.08e5; firefly reporter light, replicate 2: 4.19e5; Renilla control light, replicate 1: 6.16e5; Renilla control light, replicate 2: 4.84e5
Syt7 (Synaptotagmin 7) [DRSC17130] | firefly reporter light, replicate 1: 3.41e5; firefly reporter light, replicate 2: 3.52e5; Renilla control light, replicate 1: 6.90e6; Renilla control light, replicate 2: 4.79e6
Syt7 (Synaptotagmin 7) [DRSC17159] | firefly reporter light, replicate 1: 3.10e5; firefly reporter light, replicate 2: 4.18e5; Renilla control light, replicate 1: 5.83e6; Renilla control light, replicate 2: 3.12e6
Polr2E (RNA polymerase II, I and III subunit E) [DRSC06100] | firefly reporter light, replicate 1: 3.11e5; firefly reporter light, replicate 2: 3.12e5; Renilla control light, replicate 1: 1.01e6; Renilla control light, replicate 2: 1.16e6
mmd (mind-meld) [DRSC19673] | firefly reporter light, replicate 1: 3.98e5; firefly reporter light, replicate 2: 2.94e5; Renilla control light, replicate 1: 2.56e6; Renilla control light, replicate 2: 2.13e6
mmd (mind-meld) [DRSC20161] | firefly reporter light, replicate 1: 4.94e5; firefly reporter light, replicate 2: 3.76e5; Renilla control light, replicate 1: 3.12e6; Renilla control light, replicate 2: 2.53e6
mmd (mind-meld) [DRSC23042] | firefly reporter light, replicate 1: 6.58e5; firefly reporter light, replicate 2: 8.20e5; Renilla control light, replicate 1: 1.80e6; Renilla control light, replicate 2: 1.77e6
Ndc80 [DRSC20221] | firefly reporter light, replicate 1: 92063; firefly reporter light, replicate 2: 1.19e5; Renilla control light, replicate 1: 9.69e5; Renilla control light, replicate 2: 1.13e6
Ndc80 [DRSC21726] | firefly reporter light, replicate 1: 3.16e5; firefly reporter light, replicate 2: 3.03e5; Renilla control light, replicate 1: 1.14e6; Renilla control light, replicate 2: 1.41e6
